Test results reported in the odorant receptor screen of Mainland et al. (2015).
Where “and” joins values, the source holds several entries; their conditions need not be identical. Identical values can stand only once. The list shows a part of the results. Each value is one well over the wells without odorant, computed here; the data are noisy.

Experiments:
Experiment in all cases: odorant receptor activation (CRE luciferase / Renilla) (fold of no-odor wells); higher = more activation
Details in all cases: 100 µM
OR5C1 clone 1425 = test system: OR5C1 clone 1425
OR5D14 clone 1230 = test system: OR5D14 clone 1230
OR5D18 N136D clone 1203 = test system: OR5D18 N136D clone 1203
OR5F1 S294N clone 1148 = test system: OR5F1 S294N clone 1148
[1] = test system: OR5H1 I153L/T181I clone 1473
OR5H1 clone 1471 = test system: OR5H1 clone 1471
[2] = test system: OR5H14 G64R/Y189C clone 1472
[3] = test system: OR5H2 E11Q/I225V/I281V clone 1466
OR5H2 clone 1055 = test system: OR5H2 clone 1055
OR5H6 clone 1056 = test system: OR5H6 clone 1056

| Compound | odorant receptor activation (OR5C1 clone 1425) | odorant receptor activation (OR5D14 clone 1230) | odorant receptor activation (OR5D18 N136D clone 1203) | odorant receptor activation (OR5F1 S294N clone 1148) | odorant receptor activation [1] | odorant receptor activation (OR5H1 clone 1471) | odorant receptor activation [2] | odorant receptor activation [3] | odorant receptor activation (OR5H2 clone 1055) | odorant receptor activation (OR5H6 clone 1056) |
| --- | --- | --- | --- | --- | --- | --- | --- | --- | --- | --- |
| CC/C=C\CCO [cis-3-hexen-1-ol] | 0.393 | 1.21 | 0.779 | 0.988 | 0.762 | 1.11 | 0.952 | 0.986 | 1.11 | 1 |
| C=CCSCC=C [diallyl sulfide] | 0.837 | 1.11 | 1.09 | 1.24 | 1.02 | 1.23 | 1.25 | 1.19 | 1.02 | 0.943 |
| CCCCCCCC=CC=O [2-decenal] | 0.781 | 1.19 | 0.638 | 1.24 | 1.27 | 1.91 | 2.04 | 1.76 | 4.76 | 4.39 |
| CCCCCC(C)=O [2-heptanone] | 0.879 |  | 0.949 | 0.999 | 0.992 and 0.726 | 0.671 and 0.5 | 1.06 and 0.602 | 0.908 and 0.719 | 0.606 | 1.36 |
| CC1COCc2cc3c(cc21)C(C)(C)C(C)C3(C)C (stereo unspecified) [galaxolide] | 2.34 | 0.972 | 0.967 | 4.29 |  | 2.66 and 3.82 | 1.11 and 3.04 |  | 3.66 | 4.62 |
| CC(C)CCC(=O)O [4-methylvaleric acid] | 1.06 | 1.58 | 0.963 | 1.16 | 1.01 | 0.971 | 1.07 | 1.09 | 1.56 | 1.71 |
| COC(=O)c1ccccc1 [methyl benzoate] | 0.921 |  | 0.662 | 0.789 | 0.734 and 1.14 | 0.489 and 0.906 | 0.825 and 0.683 | 0.428 and 1.25 | 1.75 | 1.69 |
| CCCCCCCCCC=O [decyl aldehyde] | 1.17 | 1.28 | 1.12 | 1.16 | 0.829 | 1.38 | 1.34 | 1.36 | 1.18 | 1.24 |
| CCCCCCC=O [heptaldehyde] | 0.845 and 1.04 | 1.28 |  | 0.354 and 1.05 |  |  |  |  | 1.28 and 1.03 | 1.69 and 1.34 |
| CC1=NC(C)SC1C (stereo unspecified) | 1.1 |  | 0.716 | 0.655 | 1.26 and 1.21 | 0.725 and 0.942 | 1.37 and 0.726 | 0.839 and 1.04 | 1.14 | 1.03 |
| CCCCCOC(C)=O [n-amyl acetate] | 0.788 |  | 0.458 | 0.585 | 0.64 and 1.14 | 0.467 and 0.766 | 0.655 and 0.657 | 0.427 and 1.06 | 1.59 | 1.6 |
| CC1CCC(C(C)C)C(O)C1 (single isomer, unassigned; (-)) [(-)-menthol] | 0.599 | 1.26 | 0.851 | 1.17 | 2.29 | 3.58 | 1.86 | 1.4 | 2.74 | 3.59 |
| CC1=CCC(C(C)(C)O)CC1 (stereo unspecified) [terpineol] | 1.26 | 1.22 | 1.11 | 1.21 | 0.811 | 0.876 | 0.69 | 0.713 | 1.29 | 1 |
| CC(=O)c1ccccc1 [acetophenone] | 1.05 |  | 1.2 | 1.32 | 1.33 and 0.776 | 0.765 and 0.637 | 1.04 and 0.511 | 1.27 and 0.828 | 0.905 | 1.15 |
| O=C1CCCCC1 [Cyclohexanone] | 0.873 |  | 0.791 | 0.65 | 0.562 and 1.03 | 0.571 and 0.902 | 0.828 and 0.684 | 0.438 and 1.01 | 0.766 | 0.875 |
| CCCCCCOC(=O)CCC [hexyl butyrate] | 1.05 | 1.27 | 1.24 | 1.37 | 1.09 and 1.07 | 0.762 and 1.18 | 1.04 and 0.906 | 1.1 and 0.839 | 1.1 | 0.831 |
| C=C(C)C1CC=CCC1 (stereo unspecified) [r-limonene] | 1.26 and 0.845 | 1.05 |  | 1.24 and 0.524 | 1.05 and 0.706 and 1.12 | 1.13 and 0.452 and 0.901 | 0.898 and 0.683 and 0.628 | 0.852 and 0.431 and 1.04 | 1.3 and 1.84 | 1.32 and 1.24 |
| c1ccc(Oc2ccccc2)cc1 [diphenyl ether] | 0.748 | 1.06 | 0.919 | 1.18 | 0.91 | 1.36 | 1.18 | 1.16 | 1.03 | 0.996 |
| CCCCCCCC=O [octyl aldehyde] | 0.834 | 1.14 | 1.11 | 0.861 | 0.847 | 1.03 | 0.827 | 1.01 | 1.11 | 1.19 |
| CCCCCCCCC=O [nonyl aldehyde] | 0.803 | 1.05 | 0.977 | 0.894 | 1.01 | 1.02 | 1.06 | 1.05 | 0.917 | 1.08 |
| CC12C=CCC1C1CCC3=CC(=O)CCC3(C)C1CC2 (stereo unspecified) [androstadienone] | 1.11 | 0.978 | 0.949 | 1.3 | 1.11 and 1.21 | 0.859 and 1.15 | 0.886 and 1.28 | 1.14 and 1.32 | 1.23 | 1.94 |
| CC(C)C(=O)O [isobutyric acid] | 0.808 | 1.2 | 1.27 | 1.32 | 0.907 and 0.916 | 0.982 and 0.904 | 0.806 and 0.974 | 1.21 and 1.14 | 1.62 | 1 |
| C=CCc1ccc(O)c(OC)c1 [eugenol] | 1.3 and 1.11 | 1.25 | 1.85 and 1.16 | 1.82 and 1.35 | 1.46 and 1.97 and 1.08 | 1.41 and 1.21 and 1.29 | 2.57 and 1.05 and 1.24 | 1.31 and 1.26 and 1.13 | 0.913 and 1.46 | 2.29 and 1.75 |
| CCCCCCCOC(C)=O [heptyl acetate] | 1.19 | 0.996 | 1.01 | 1.09 | 0.839 and 1.26 | 0.667 and 1.08 | 0.94 and 1.1 | 0.796 and 1.4 | 0.645 | 1.48 |
| CC(C)(C)c1ccc(CCC=O)cc1 [bourgeonal] | 0.419 | 0.803 | 0.57 | 0.78 | 0.712 | 1.24 | 0.852 | 1.17 | 1.2 | 0.854 |
| CC12CCC(CC1)C(C)(C)O2 [cineole] | 0.437 | 0.98 | 0.798 | 0.874 | 0.816 | 1.14 | 0.964 | 0.93 | 1.26 | 0.931 |
| CC(C)CC(=O)O [isovaleric acid] | 0.824 | 1.33 | 1.07 | 1.04 | 1 | 1.01 | 1.12 | 0.949 | 1.55 | 1.28 |
| CC12C=CCC1C1CCC3CC(=O)CCC3(C)C1CC2 (stereo unspecified) [androstenone] | 0.967 | 6.2 | 4.57 | 7.14 | 0.865 | 1.01 | 1.16 | 1.1 | 1.55 | 2.07 |
